According to doi:10.1101/2025.04.25.650668:

Target: GST-RBD (Rhotekin binding domain) (UniProt Q8C6B2)
Experiment: pull-down

binding: binds
Substance: RhoA (from UniProt P61586 1-193)

These are yes or no findings as the source states them, for the method shown. Binding seen in cells or lysates may run through a third protein. A result given as binding can be weak or reduced; the word gives no strength.
